Primary screen of a compound library

Measurements from “University of Dundee, Small-Polar-MMV Screening Library” (2021), ChEMBL document CHEMBL3988442.

Mtb growth Cornell: 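Whole-cell assay for inhibitors of Mycobacterium tuberculosis growth, labelled Cornell in the record; the read-out is not stated. The concentration is filed as 10 mM, unlikely as a test dose, so the dose is not known. Higher means stronger inhibition (inferred from two other growth screens of the library). About 53,000 compounds were tested under these conditions; 1.7% (about 900) showed 50% or more at least once.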
Mtb heat-shock: 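Assay on Mycobacterium tuberculosis, filed only as a heat shock assay from Cornell; the read-out is not stated. The concentration is filed as 10 mM, unlikely as a test dose, so the dose is not known. Direction is inferred from retests: higher values go with stronger inhibition. Size under these conditions: about 69,000 compounds, about 930 of them at 50% or above in at least one test.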

Each number is a percent effect as filed. The controls that fix the scale are not given in the record; negative values are as filed. The compounds are a random part of those screened.

{"smiles": "O=C(O)C(F)(F)F.O=C(O)C(F)(F)F.[H][C@@]12OCCN(CCOCC)[C@@]1([H])CC[C@H]2OCc1ccccn1", "Mtb growth Cornell": -3.16, "Mtb heat-shock": -1.414}
{"smiles": "CCc1nc(C2CCCN2CCS(=O)(=O)c2ccccc2)no1", "stereo": "stereo not given", "Mtb heat-shock": 3.529}
{"smiles": "CNC(=O)c1cn(C)c(-c2nc3cc(NC(C)=O)ccc3n2C)c1OC", "Mtb growth Cornell": 20.84, "Mtb heat-shock": -15.22}
{"smiles": "O=C1CC(NS(=O)(=O)c2ccc(F)c(Cl)c2)CN1", "stereo": "stereo not given", "Mtb growth Cornell": 37.18, "Mtb heat-shock": 16.8}
{"smiles": "COCCC(=O)N1Cc2ccccc2OC2(CCOCC2)C1", "Mtb growth Cornell": 6.877, "Mtb heat-shock": 1.907}
{"smiles": "Cc1nc(CN(Cc2cccs2)C2CCS(=O)(=O)C2)oc1C", "stereo": "stereo not given", "Mtb growth Cornell": 23.14, "Mtb heat-shock": 16.41}
{"smiles": "CCN(CC)C(=O)CSc1nc2cc(C)nc-2c(O)n1Cc1ccco1", "Mtb growth Cornell": 21.74, "Mtb heat-shock": 14.5}
{"smiles": "CS(=O)(=O)CC1(CNc2c(C#N)cnc3ccc(Cl)cc23)CC1", "Mtb growth Cornell": -0.009666, "Mtb heat-shock": 9.756}
{"smiles": "CCc1nnc2n1CCN(C(=O)c1cc3ccc(C)cc3[nH]1)C2", "Mtb growth Cornell": -40.79, "Mtb heat-shock": -9.036}
{"smiles": "O=C(NCCCOC1CCOC1)NC(C1CC1)C1CC1", "stereo": "stereo not given", "Mtb growth Cornell": -11.36, "Mtb heat-shock": 5.665}
{"smiles": "CS(=O)(=O)c1ccc(NCc2ccc(F)cc2)cn1", "Mtb growth Cornell": 28.57, "Mtb heat-shock": 3.523}
{"smiles": "Cn1nc(COc2cccnc2)c2c1CCN(Cc1ccco1)C2.O=C(O)C(F)(F)F.O=C(O)C(F)(F)F", "Mtb growth Cornell": 3.114, "Mtb heat-shock": -9.864}
{"smiles": "N#Cc1cccc(S(=O)(=O)N2CCCCC2C(N)=O)c1", "stereo": "stereo not given", "Mtb growth Cornell": 15.32, "Mtb heat-shock": 11.52}
{"smiles": "COC(=O)CCCNC(=O)Nc1ccccc1OC", "Mtb heat-shock": -4.411}
{"smiles": "CCN(c1ccc(C(=O)N2CCCC2)cc1)S(=O)(=O)CC", "Mtb growth Cornell": -6.297, "Mtb heat-shock": 6.965}
{"smiles": "O=C(c1ccno1)N1CC(c2nc(-c3ccco3)no2)C1", "Mtb growth Cornell": 0.1089, "Mtb heat-shock": 4.865}
{"smiles": "COc1ccc(Cc2noc(-c3ccc(NC(C)CO)nc3)n2)cc1", "stereo": "stereo not given", "Mtb growth Cornell": 8.721, "Mtb heat-shock": 8.265}
{"smiles": "CCc1cc(NCCCOC2CCN(C)CC2)ncn1", "Mtb growth Cornell": 3.172, "Mtb heat-shock": -20.3}
{"smiles": "CN(C)c1cc(CC(NC(=O)C2CC2)c2ccccc2)nc(C2CC2)n1", "stereo": "stereo not given", "Mtb growth Cornell": -3.724, "Mtb heat-shock": -23.73}
{"smiles": "CCN1CCN(CCNC(=O)c2sc(C(C)C)nc2C)CC1", "Mtb heat-shock": 16.68}
{"smiles": "Cc1nnc(CN(Cc2cccc3c2OCO3)CC2CCCO2)n1C", "stereo": "stereo not given", "Mtb growth Cornell": -0.3963, "Mtb heat-shock": -26.4}
{"smiles": "CS(=O)(=O)c1cncnc1C1CCCN(C(=O)Nc2ccc(F)cc2)C1", "stereo": "stereo not given", "Mtb growth Cornell": 1.144, "Mtb heat-shock": 3.473}
{"smiles": "O=C(O)C(F)(F)F.O=C(O)C(F)(F)F.O=C(c1ccncc1)N1CCC2(CC1)CCN(Cc1ccccn1)C2=O", "Mtb heat-shock": -28.62}
{"smiles": "Cc1nn(C)c2nc(N3CCCCC3c3ccc(F)cc3)sc12", "stereo": "stereo not given", "Mtb growth Cornell": 39.62, "Mtb heat-shock": 8.6}
{"smiles": "O=C(CN(Cc1cccs1)c1ccc(F)cc1)NC1CCOCC1", "Mtb growth Cornell": 47.86, "Mtb heat-shock": -3.725}
{"smiles": "O=C(O)C(F)(F)F.O=C(O)C(F)(F)F.[H][C@@]12CCN(Cc3ccccn3)C[C@]1([H])OCCN(c1ccccc1)C2=O", "Mtb growth Cornell": 28.91, "Mtb heat-shock": -0.2459}
{"smiles": "CN(Cc1ccsc1)Cc1nc(-c2ccncc2)no1", "Mtb growth Cornell": 20.87, "Mtb heat-shock": -5.107}
{"smiles": "CCN(c1ccc(C(=O)NCCCN2CCCC2)cc1)S(=O)(=O)CC", "Mtb growth Cornell": -9.328, "Mtb heat-shock": 9.134}
{"smiles": "CC(=O)N1CCN(c2ccc(Cl)nn2)C(=O)C1", "Mtb heat-shock": -4.121}
{"smiles": "COc1ccc2c(c1)C(C(=O)NCCN1CCOC1=O)CC(=O)N2", "stereo": "stereo not given", "Mtb growth Cornell": -16.3, "Mtb heat-shock": 4.888}
{"smiles": "Cc1c(CN2CCCCC2)c(O)n(CCO)c(=O)c1C#N", "Mtb growth Cornell": 38.65, "Mtb heat-shock": -6.2}
{"smiles": "Cc1ccc(Cl)c(NC(=O)NC2(C)CCOC2)c1", "stereo": "stereo not given", "Mtb growth Cornell": 20.96, "Mtb heat-shock": 10.9}
{"smiles": "Cc1nccc(-c2cccc(NCC(=O)N3CCCC(C)C3)c2)n1", "stereo": "stereo not given", "Mtb growth Cornell": -2.032, "Mtb heat-shock": -10.93}

The last 3 entries again:

SMILES,Mtb growth Cornell,Mtb heat-shock
Cc1c(CN2CCCCC2)c(O)n(CCO)c(=O)c1C#N,38.65,-6.2
Cc1ccc(Cl)c(NC(=O)NC2(C)CCOC2)c1 (stereo not given),20.96,10.9
Cc1nccc(-c2cccc(NCC(=O)N3CCCC(C)C3)c2)n1 (stereo not given),-2.032,-10.93